# Assay results reported in PubChem BioAssay AID1259415 (National Center for Advancing Translational Sciences (NCATS), 2018).
# The campaign covered roughly 410,000 compounds. About 18,000 (4.4%) were called active. The shares of active, inactive and inconclusive entries below differ from those in the screen. No stated cut-off is given here; in the data, active means activity change below about -60%; inconclusive means no clear call, values can overlap the other calls; inactive means above about -39%.
# Experiment: qHTS Assay for inhibitors of the human cytomegalovirus (HCMV)
# Settings: HFF cells, HCMV-luciferase reporter, 72 h; at 57.5 µM; hits give low values
# Summary of the method: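 Steps: HFFs plated, 16 h 37C; compounds added; HCMV-luciferase added to MOI 1 PFU/cell; 72 h 37C; OneGlo reagent, 5 min room temperature; luminescence read, normalized to controls.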
# On the % scale 0 is the no-effect control and ±100 the full control effect.
row,Compound,"activity change, negative = inhibition"
1,CCOC(=O)c1cnc2c(OC)cccc2c1Nc1cccc(O)c1,inconclusive: -45.4%
2,CC(C)(C)c1ccc(NC(=O)CSc2nnc3scc(-c4ccccc4)n23)cc1,inconclusive: -50.6%
3,Cc1ccccc1S(=O)(=O)Cc1ccc(C(=O)NCCN(C)Cc2ccccc2)o1,inconclusive: -51.5%
4,COc1ccccc1NC(=O)c1c(C)nn(-c2ccccc2)c1Cl,inconclusive: -41.3%
5,Cc1ccc(NC(=S)N=Nc2c(O)[nH]c3ccccc23)cc1,inconclusive: -58.2%
6,Cc1cccc(NC(=O)NNC(=O)c2cc3ccccc3cc2O)c1C,inactive: -21%
7,N#C/C(=C/c1ccc(CNS(=O)(=O)c2ccccc2)o1)C(=O)NCc1ccccc1,inconclusive: -51.5%
8,Cc1nc2cccnc2n1-c1cccc(C(=O)NCCc2ccc(Cl)cc2)c1,inconclusive: 0%
9,Cc1ccc(NC(=O)N(Cc2ccco2)Cc2cc3cc(C)cc(C)c3nc2Cl)cc1,inactive: -9.6%
10,O=C(NCc1ccc2c(c1)OCO2)C1CC(=O)N(C2CCCCCC2)C1 (stereo unspecified),inconclusive: -44.3%
11,Cc1cc(Cl)ccc1OC(C)C(=O)N1CCCN(C(=O)C(C)Oc2ccc(Cl)cc2C)CC1 (stereo unspecified),inconclusive: -41.3%
12,CCCNC(=O)C(Cc1ccc(I)cc1)NC(=O)c1ccc2ccccc2n1 (stereo unspecified),inactive: 17.7%
13,Cc1ccc(CNC(=O)CSc2c3c(nc4ccc(Cl)cc24)CCCC3)o1,inactive: 25.9%
14,COc1cc(/C=N/NC(=O)c2ccccn2)ccc1OC(=O)c1ccc(Br)cc1,inactive: -13.2%
15,O=C(c1ccccc1F)N(NC(=O)C(O)(c1ccccc1)c1ccccc1)c1ccccc1,inconclusive: -43.4%
16,COc1ccc(S(=O)(=O)Nc2ccc(C)c(S(=O)(=O)N3CCOCC3)c2)cc1[N+](=O)[O-],inactive: -34.5%
17,COc1ccccc1C1c2c(C)nn(-c3ccccc3)c2NC(=O)C1NC(=O)c1ccccc1 (stereo unspecified),inconclusive: -48.1%
18,O=C(NCCCN1CCN(c2ccccc2F)CC1)C1CC(=O)N(C2CCCC2)C1 (stereo unspecified),inactive: 13.4%
19,COc1ccc(-c2cc(=O)oc3cc(OCC(=O)Nc4ccc(CCO)cc4)ccc23)cc1,inconclusive: -59.8%

row,Compound,"activity change, negative = inhibition"
1,CN(C(=O)c1cccs1)c1ccc(OCC(=O)N2CCC(C(N)=O)CC2)cc1,inconclusive: -40.2%
2,CCOC(=O)c1c(NC(=O)CSc2nnc(C)s2)sc2c1CCC(C)C2 (stereo unspecified),inactive: -12.3%
3,O=C(NCCCn1ccnc1)c1ccccc1Cl,inactive: 5.88%
4,Cc1cccc(NC(=O)c2cc(NC(=O)c3ccco3)ccc2N2CCCCC2)c1,inconclusive: -44.2%
5,Cc1cccc(Cn2c(-c3ccc[nH]c3=O)nc3ccccc32)c1,inconclusive: -45%
6,Brc1ccc(OCCn2ccnc2)cc1,inconclusive: -40.1%
7,O=S(=O)(c1ccc(Br)cc1)c1nc(-c2cccs2)oc1SCc1ccccc1F,inactive: -9.49%
8,CSc1nnnn1-c1ccc(C)c(Cl)c1,inconclusive: -56.8%
9,COc1cc(CNCCSc2nnnn2C)cc(Br)c1OCc1ccccc1F,inactive: -15.5%
10,CC1(C(O)(C#CC[N+]2(C)CCCCC2)c2ccccc2)CCCC1 (stereo unspecified),inconclusive: -47.2%
11,CC1CCN(Cc2nc3c(c(=O)n(C)c(=O)n3C)n2CCCc2ccccc2)CC1,inconclusive: -45.2%
12,COc1ccccc1NC(=O)N1CCN(c2cc(-c3ccccc3)nc3ncnn23)CC1,active: -95.4%
13,CCN(CC)S(=O)(=O)c1ccc(N2CCCCC2)c(NC(=O)C2=COCCO2)c1,inconclusive: -43.6%
14,CCOC(=O)c1c(-c2ccc(OC)cc2)csc1NC(=O)CSc1ncnc2sccc12,active: -71%
15,Cc1cc(Nc2ccc(F)c(F)c2)nc(-c2ccccc2O)n1,inactive: -37.2%
16,Cc1ccc(-c2cnc(NCc3ccc(C(F)(F)F)cc3)n2C)cc1,inconclusive: -47.1%
17,CCCCN(C(=O)c1ccccc1F)c1c(N)n(CCC)c(=O)[nH]c1=O,inactive: 14.6%
18,Cc1ccc(CCNC(=O)C2CCN(c3nnc(-n4cccc4CNc4ccc(C)cc4)s3)CC2)cc1,active: -72.7%
19,O=C(NC1CCS(=O)(=O)C1)Oc1ccc(Cl)cc1 (stereo unspecified),active: -106%

# Structural class, the entries above containing fluorine
row,Compound,"activity change, negative = inhibition"
15,O=C(c1ccccc1F)N(NC(=O)C(O)(c1ccccc1)c1ccccc1)c1ccccc1,inconclusive: -43.4%
18,O=C(NCCCN1CCN(c2ccccc2F)CC1)C1CC(=O)N(C2CCCC2)C1 (stereo unspecified),inactive: 13.4%
7,O=S(=O)(c1ccc(Br)cc1)c1nc(-c2cccs2)oc1SCc1ccccc1F,inactive: -9.49%
9,COc1cc(CNCCSc2nnnn2C)cc(Br)c1OCc1ccccc1F,inactive: -15.5%
15,Cc1cc(Nc2ccc(F)c(F)c2)nc(-c2ccccc2O)n1,inactive: -37.2%
16,Cc1ccc(-c2cnc(NCc3ccc(C(F)(F)F)cc3)n2C)cc1,inconclusive: -47.1%
17,CCCCN(C(=O)c1ccccc1F)c1c(N)n(CCC)c(=O)[nH]c1=O,inactive: 14.6%

# The listing continues.

row,Compound,"activity change, negative = inhibition"
1,Cc1[nH]c2ccc(C(=O)N3CCCC3)cc2c1C,inactive: 6.58%
2,CC(=O)c1cccc(NC(=O)CCS(=O)(=O)c2ccc(Br)s2)c1,inconclusive: -44.5%
3,Cc1cc(C)c2c3c(sc2n1)C(=O)N(Cc1ccccc1)CC(=O)N3,inconclusive: -41.1%
4,N#Cc1cn(CCOC(=O)c2cccc(C(F)(F)F)c2)c(=O)[nH]c1=O,inconclusive: -49.6%
5,Cc1ccc(C(c2nnnn2Cc2ccccc2)N2CC=C(c3ccc(F)cc3)CC2)cc1 (stereo unspecified),inactive: -30.7%
6,NS(=O)(=O)c1cccc(NC(=O)c2cc(=O)c3ccccc3o2)c1,inactive: 7.14%
7,COc1ccc(/C=C/C(=O)c2ccc3c4c(cccc24)CC3)cc1,inactive: 7.39%
8,CC(C)(C)c1cc(NC(=O)Nc2ccc(Br)cc2Cl)no1,inconclusive: -53.1%
9,COc1cccc(N2CC34C=CC(O3)C(C(=O)O)C4C2=O)c1 (stereo unspecified),inactive: 9.61%
10,Oc1cccc2c(-c3nn[nH]n3)ccnc12,inactive: -23.4%
11,O=C(COC(=O)c1ccc[nH]c1=O)Nc1ccc(S(=O)(=O)N2CCCC2)cc1,inconclusive: -54.6%
12,O=C(CSc1ncccn1)NCc1ccc(F)cc1,inactive: 33.6%
13,Cc1nn(CCOc2ccc(Br)cc2)c(C)c1[N+](=O)[O-],inconclusive: -56.8%
14,Cc1sc2c(c1C)c(=O)n(-c1cccc(C(F)(F)F)c1)c(=O)n2Cc1ccc(F)cc1,inactive: 2.82%
15,COc1ccc(C(=O)NC(=S)N(C)C2CCCCC2)cc1Br,inconclusive: -42.1%
16,O=C(Cn1nc(C(F)(F)F)c2c1CCCC2)Nc1ccc2c(c1)OCO2,inconclusive: -53.4%
17,O=C(CCC1CCCN(C(=O)C2=CCCCC2)C1)N1CCN(c2ccccn2)CC1 (stereo unspecified),inconclusive: -48.2%
18,CC(C)c1ccc(/C=C/C(=O)NC(=S)NN2CCOCC2)cc1,active: -98%

# 2 consecutive records already listed, quoted:
row,Compound,"activity change, negative = inhibition"
17,O=C(CCC1CCCN(C(=O)C2=CCCCC2)C1)N1CCN(c2ccccn2)CC1 (stereo unspecified),inconclusive: -48.2%
18,CC(C)c1ccc(/C=C/C(=O)NC(=S)NN2CCOCC2)cc1,active: -98%
